Measurements as given in PubChem BioAssay AID2685 (National Center for Advancing Translational Sciences (NCATS), 2010).
The list shows a part of the results. Further columns of the screen follow, without active or inactive calls. Compounds called inactive in the main read-out are mostly missing here. Words in brackets tell the shape of the fitted curve; partial curves, single points and poor fits give uncertain potencies.

Assay: qHTS Assay for Lipid Storage Modulators in Drosophila S3 Cells;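 as to cell number change: cells counted by Cell Tracker Red CMTPX staining in the red channel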
Conditions: BODIPY lipid droplet fluorescence, 18-24 h; for cell number change: measured here: cell count max response, cells fed with added oleic acid
In short: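 Drosophila S3 cells loaded with oleic acid (400 uM, as added) and compounds at several concentrations; lipid droplets imaged by 488-nm laser-scanning cytometry, 500–530 nm intensity and object ratio to cell channel. Percent activity normalized to 20 uM Triacsin C.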

[1] = measured here: lipid fluorescence (Fed channel) AC50, cells fed with added oleic acid
[2] = measured here: cell number channel AC50, cells fed with added oleic acid

SMILES | cell number change | AC50 [1] | AC50 [2]
O=C(NNS(=O)(=O)c1ccc(F)cc1)c1ccc([N+](=O)[O-])cc1Cl | 34.5% | 6.51 µM [rising, single point] | –
C/C=C/c1ccc(OC)c(OC(C)=O)c1 | 21.3% | 4.11 µM [rising, single point] | –
CCOCCCNCC(=O)NCC1CCCCC1 | -20.7% | 0.58 µM [falling, single point] | –
COC(=O)N/N=C/c1ccc([N+](=O)[O-])s1 | -12.2% | 18.4 µM [falling, single point] | –
COc1cc2ncnc(NCc3ccccc3C)c2cc1OC | – | 0.13 µM [falling, full curve, poor fit] | –
CCn1c(NC(=O)/C=C/c2ccc(F)cc2)nc2ccccc21 | 7.62% | – | –
COc1ccc(C(=O)Nc2ccc(NC(C)=O)cc2)cc1S(=O)(=O)N(C)Cc1ccccc1 | 2.74% | – | –
O=C(c1ccccc1-c1nc2ccccc2[nH]1)N1CCOCC1 | 13% | 23.1 µM [rising, single point] | –
CN(C)c1ccc(C(=S)N2CCCCC2)cc1Br | 12.1% | 2.51 µM [falling, partial curve, poor fit] | –
Cc1cc(C)nc(SCC(=O)Nc2cccc(S(=O)(=O)N(C)C)c2)n1 | 101% | – | 13 µM [rising, partial curve, poor fit]
COc1ccc(NC(=O)CCn2cccc2)cc1 | -0.234% | 0.206 µM [falling, full curve, poor fit] | –
CC(C)COC(=O)CCNc1n[nH]c(=O)[nH]c1=O | -209% | – | 20.6 µM [falling, partial curve]
CCN(CC)S(=O)(=O)c1ccc(N2CCOCC2)c(NC(=O)COc2ccc(Cl)cc2)c1 | 31.2% | 29.1 µM [rising, single point] | –
Cc1ccc2nc(-c3ccc(NS(=O)(=O)c4ccccc4)cc3)sc2c1 | -34.7% | 0.82 µM [falling, full curve, poor fit] | 0.731 µM [falling, full curve]
CCCCOC(=O)C1=C(C)NC(=O)NC1c1cccc([N+](=O)[O-])c1 (centres undefined) | -51.6% | – | 18.4 µM [falling, single point]
COc1ccc(/C=C2\SC(=S)N(CCC(=O)N(CCO)Cc3ccccc3)C2=O)cc1OC | -31% | 1.64 µM [falling, partial curve] | 2.31 µM [falling, full curve]
CC(NC(=O)Cn1ccsc1=N)C12CC3CC(CC(C3)C1)C2 (centres undefined) | 2.1% | 0.103 µM [rising, full curve, poor fit] | –
O=C(COc1ncnc2ccccc12)NC(=O)NCc1ccccc1 | 2.8% | 18.4 µM [rising, partial curve] | –
Cc1ccc(NC(=O)CN(C)C(=O)COC(=O)COc2ccc(C#N)cc2)cc1 | 1.69% | 29.1 µM [falling, single point] | –

SMILES | cell number change | AC50 [1] | AC50 [2]
COc1cc(/C=C2/CCC/C(=C\c3cc(O)c(OC)c(Cl)c3)C2=O)cc(Cl)c1O | -42.1% | 20.6 µM [falling, partial curve, poor fit] | 29.1 µM [falling, single point]
O=C(COC(=O)c1n[nH]c2ccccc12)NC(=O)NC1CCCCC1 | -32.8% | – | 20.6 µM [falling, single point]
CCOC(=O)Cn1c(=NC(=O)C2COc3ccccc3O2)sc2cc(S(N)(=O)=O)ccc21 (centres undefined) | 3.73% | – | –
COc1cc(/C=C2\SC(=S)N(CCC(=O)Nc3cccc(O)c3)C2=O)cc(OC)c1OC | – | 11.6 µM [falling, single point] | –
Cn1c(N2CCN(C(=O)Nc3ccc(C(F)(F)F)cc3)CC2)nc2ccccc21 | -41.7% | – | 29.1 µM [falling, single point]
Cc1cccc(NC(=O)CNC(=O)COC(=O)c2ccco2)c1C | -35.9% | 25.9 µM [falling, partial curve] | 25.9 µM [falling, partial curve, poor fit]
Oc1c(CN2CCN(c3ccc(F)cc3)CC2)cc(Cl)c2cccnc12 | -70.8% | 29.1 µM [falling, partial curve, poor fit] | 32.6 µM [falling, single point]
COc1cc(NS(=O)(=O)c2ccc(NC(=S)NC(=O)c3ccccc3)cc2)nc(OC)n1 | 15.2% | 0.58 µM [rising, single point] | –
Cc1ccc(NS(=O)(=O)c2coc(C(N)=O)c2)cc1F | 8.07% | – | –
CC(C)(C)c1ccc(OCC(=O)Nc2cccc(S(=O)(=O)NC3=NCCCCC3)c2)cc1 | -13.1% | 29.1 µM [falling, single point] | –
CCOc1cc(C(=O)Nc2ccc(NC(C)=O)cc2)ccc1OCC(=O)N1CCCCC1 | 27.1% | 0.58 µM [rising, single point] | –
O=c1[nH]c(NCCCO)nc2c1C1(CCCC1)Cc1ccccc1-2 | -54.9% | 23.1 µM [falling, single point] | 1.16 µM [falling, full curve]
O=[N+]([O-])c1ccc(N2CCOCC2)cc1N1CCCCC1 | 43.3% | – | –
O=S(=O)(c1ccccc1)n1c(C(O)c2ccccn2)cc2ccccc21 (centres undefined) | -2.37% | – | –
CC12CN3CC(C)(CN(C1)C3c1ccc(Br)cc1)C2=O (centres undefined) | -8.98% | 4.11 µM [falling, single point] | –
CNc1nc(C)c(C#N)cc1C(C)=O | – | 3.26 µM [falling, partial curve] | –
COCCCN1C(=O)c2[nH]nc(-c3ccccc3O)c2C1c1ccc(Cl)cc1 (centres undefined) | -54.4% | – | 2.91 µM [rising, single point]
Cc1cccn2c(=O)c3cc(S(=O)(=O)c4ccc(Br)cc4)c(=N)n(C4CCCC4)c3nc12 | 40% | 29.1 µM [rising, single point] | 9.2 µM [rising, partial curve, poor fit]
COc1ccc(/C=N/Nc2nn3cnnc3c3ccccc23)cc1 | -25.3% | 16.4 µM [falling, single point] | –

Taken from the listing, two compounds:
SMILES | cell number change | AC50 [1] | AC50 [2]
Cc1ccc(NS(=O)(=O)c2coc(C(N)=O)c2)cc1F | 8.07% | – | –
CC(C)(C)c1ccc(OCC(=O)Nc2cccc(S(=O)(=O)NC3=NCCCCC3)c2)cc1 | -13.1% | 29.1 µM [falling, single point] | –
